Taken from: PubChem BioAssay AID1224830 (NIAID, 2016)
Test: 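Genes whose knock-down alters the TNF-alpha reporter response to LPS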 (primary screen). Cell system: human THP-1 monocytic leukaemia cells, TNF dual-luciferase reporter clone, PMA-differentiated to macrophage-like cells. Knock-down reagent: siRNA pool against human genes, 50 nM. Time to read-out: LPS for 4 h, given about 3 days after siRNA transfection. Challenge: bacterial LPS (TLR4 ligand), 10 ng/ml. Detection: 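Ratio of firefly to renilla light, scaled to the plate median and expressed as a robust z-score per replicate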. Scale: TNF reporter robust z-score: higher = stronger TNF reporter response to LPS. Call rule: 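a well is active when its z-score exceeds 2.8 or falls below -1.5; control wells carry no call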.
The deposit covers about 18,000 reagents; shown is a part drawn at random. About 2,900 of them (16%) count as active. 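Calls are made per well; low scores hint the gene aids the LPS response, high scores that it dampens it.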 Repeated entries: four replicate wells of each siRNA pool. Reagent sequences are not shown.

target	TNF reporter robust z-score	call
C1orf54 (chromosome 1 open reading frame 54)	0.63	inactive
C1orf54 (chromosome 1 open reading frame 54)	-0.49	inactive
C1orf54 (chromosome 1 open reading frame 54)	-0.85	inactive
C1orf54 (chromosome 1 open reading frame 54)	-0.53	inactive
PLA2G12A (phospholipase A2 group XIIA)	-0.41	inactive
PLA2G12A (phospholipase A2 group XIIA)	-0.34	inactive
PLA2G12A (phospholipase A2 group XIIA)	-0.82	inactive
PLA2G12A (phospholipase A2 group XIIA)	1.34	inactive
ZBTB37 (zinc finger and BTB domain containing 37)	0.67	inactive
ZBTB37 (zinc finger and BTB domain containing 37)	0.85	inactive
ZBTB37 (zinc finger and BTB domain containing 37)	0.72	inactive
ZBTB37 (zinc finger and BTB domain containing 37)	0.82	inactive
MTERF3 (mitochondrial transcription termination factor 3)	-0.15	inactive
MTERF3 (mitochondrial transcription termination factor 3)	-1.52	active
MTERF3 (mitochondrial transcription termination factor 3)	-1.2	inactive
MTERF3 (mitochondrial transcription termination factor 3)	-0.91	inactive
MCAM (melanoma cell adhesion molecule)	0.57	inactive
MCAM (melanoma cell adhesion molecule)	1.45	inactive
MCAM (melanoma cell adhesion molecule)	1.05	inactive
MCAM (melanoma cell adhesion molecule)	1.64	inactive
OR7D4 (olfactory receptor family 7 subfamily D member 4)	-0.42	inactive
OR7D4 (olfactory receptor family 7 subfamily D member 4)	0.39	inactive
OR7D4 (olfactory receptor family 7 subfamily D member 4)	0.35	inactive
OR7D4 (olfactory receptor family 7 subfamily D member 4)	0.5	inactive
WASF3 (WASP family member 3)	2.58	inactive
WASF3 (WASP family member 3)	-0.01	inactive
WASF3 (WASP family member 3)	0.27	inactive
WASF3 (WASP family member 3)	1.96	inactive
FAM216B (family with sequence similarity 216 member B)	0.26	inactive
FAM216B (family with sequence similarity 216 member B)	0.86	inactive
FAM216B (family with sequence similarity 216 member B)	1.41	inactive
FAM216B (family with sequence similarity 216 member B)	1.54	inactive
PHC1 (polyhomeotic homolog 1)	1.09	inactive
PHC1 (polyhomeotic homolog 1)	0.05	inactive
PHC1 (polyhomeotic homolog 1)	0.84	inactive
PHC1 (polyhomeotic homolog 1)	2.1	inactive
FCHO2 (FCH and mu domain containing endocytic adaptor 2)	-1.08	inactive
FCHO2 (FCH and mu domain containing endocytic adaptor 2)	0.89	inactive
FCHO2 (FCH and mu domain containing endocytic adaptor 2)	0.85	inactive
FCHO2 (FCH and mu domain containing endocytic adaptor 2)	-0.21	inactive
ZNF181 (zinc finger protein 181)	-1.03	inactive
ZNF181 (zinc finger protein 181)	-0.61	inactive
ZNF181 (zinc finger protein 181)	-0.53	inactive
AKR1C3 (aldo-keto reductase family 1 member C3)	-0.56	inactive
AKR1C3 (aldo-keto reductase family 1 member C3)	0.14	inactive
AKR1C3 (aldo-keto reductase family 1 member C3)	-0.37	inactive
AKR1C3 (aldo-keto reductase family 1 member C3)	0.17	inactive

Part of the list above, reformatted:
FAM216B (family with sequence similarity 216 member B) | TNF reporter robust z-score = 1.41; call = inactive
FAM216B (family with sequence similarity 216 member B) | TNF reporter robust z-score = 1.54; call = inactive
PHC1 (polyhomeotic homolog 1) | TNF reporter robust z-score = 1.09; call = inactive
PHC1 (polyhomeotic homolog 1) | TNF reporter robust z-score = 0.05; call = inactive
PHC1 (polyhomeotic homolog 1) | TNF reporter robust z-score = 0.84; call = inactive
PHC1 (polyhomeotic homolog 1) | TNF reporter robust z-score = 2.1; call = inactive
FCHO2 (FCH and mu domain containing endocytic adaptor 2) | TNF reporter robust z-score = -1.08; call = inactive
FCHO2 (FCH and mu domain containing endocytic adaptor 2) | TNF reporter robust z-score = 0.89; call = inactive
FCHO2 (FCH and mu domain containing endocytic adaptor 2) | TNF reporter robust z-score = 0.85; call = inactive
FCHO2 (FCH and mu domain containing endocytic adaptor 2) | TNF reporter robust z-score = -0.21; call = inactive
ZNF181 (zinc finger protein 181) | TNF reporter robust z-score = -1.03; call = inactive
ZNF181 (zinc finger protein 181) | TNF reporter robust z-score = -0.61; call = inactive
ZNF181 (zinc finger protein 181) | TNF reporter robust z-score = -0.53; call = inactive

The list goes on:
target	TNF reporter robust z-score	call
RPAP2 (RNA polymerase II associated protein 2)	-1.59	active
RPAP2 (RNA polymerase II associated protein 2)	-1.67	active
RPAP2 (RNA polymerase II associated protein 2)	-0.94	inactive
RPAP2 (RNA polymerase II associated protein 2)	-0.97	inactive
FAM181B (family with sequence similarity 181 member B)	0.66	inactive
FAM181B (family with sequence similarity 181 member B)	0.36	inactive
FAM181B (family with sequence similarity 181 member B)	1.77	inactive
FAM181B (family with sequence similarity 181 member B)	1.01	inactive
MPPED1 (metallophosphoesterase domain containing 1)	0.27	inactive
MPPED1 (metallophosphoesterase domain containing 1)	0.39	inactive
MPPED1 (metallophosphoesterase domain containing 1)	-0.92	inactive
MPPED1 (metallophosphoesterase domain containing 1)	-0.4	inactive
STYK1 (STY kinase 1)	-0.77	inactive
STYK1 (STY kinase 1)	0	inactive
STYK1 (STY kinase 1)	1.19	inactive
STYK1 (STY kinase 1)	0.38	inactive
TNIK (TRAF2 and NCK interacting kinase)	-0.41	inactive
TNIK (TRAF2 and NCK interacting kinase)	-0.06	inactive
TNIK (TRAF2 and NCK interacting kinase)	-0.65	inactive
TNIK (TRAF2 and NCK interacting kinase)	-0.22	inactive
STK31 (serine/threonine kinase 31)	0.67	inactive
STK31 (serine/threonine kinase 31)	0.23	inactive
STK31 (serine/threonine kinase 31)	0.24	inactive
STK31 (serine/threonine kinase 31)	1.11	inactive
ERC2 (ELKS/RAB6-interacting/CAST family member 2)	-0.37	inactive
ERC2 (ELKS/RAB6-interacting/CAST family member 2)	-0.87	inactive
ERC2 (ELKS/RAB6-interacting/CAST family member 2)	-0.69	inactive
ERC2 (ELKS/RAB6-interacting/CAST family member 2)	0.33	inactive
ZNF829 (zinc finger protein 829)	1.45	inactive
ZNF829 (zinc finger protein 829)	0.22	inactive
ZNF829 (zinc finger protein 829)	0.16	inactive
ZNF829 (zinc finger protein 829)	1.84	inactive
ZCCHC3 (zinc finger CCHC-type containing 3)	-0.74	inactive
ZCCHC3 (zinc finger CCHC-type containing 3)	-0.37	inactive
ZCCHC3 (zinc finger CCHC-type containing 3)	0.05	inactive
PSG11 (pregnancy specific beta-1-glycoprotein 11)	0.58	inactive
PSG11 (pregnancy specific beta-1-glycoprotein 11)	-0.06	inactive
PSG11 (pregnancy specific beta-1-glycoprotein 11)	-0.18	inactive
PSG11 (pregnancy specific beta-1-glycoprotein 11)	-0.08	inactive
PRR30 (proline rich 30)	4.03	active
PRR30 (proline rich 30)	1.13	inactive
PRR30 (proline rich 30)	0.68	inactive
PRR30 (proline rich 30)	0.82	inactive
PARS2 (prolyl-tRNA synthetase 2, mitochondrial)	-0.7	inactive
PARS2 (prolyl-tRNA synthetase 2, mitochondrial)	-1.58	active
PARS2 (prolyl-tRNA synthetase 2, mitochondrial)	-1.3	inactive
PARS2 (prolyl-tRNA synthetase 2, mitochondrial)	-0.79	inactive
TFG (trafficking from ER to golgi regulator)	-0.35	inactive
TFG (trafficking from ER to golgi regulator)	-0.31	inactive
TFG (trafficking from ER to golgi regulator)	-0.53	inactive
TFG (trafficking from ER to golgi regulator)	0.67	inactive
TSPYL2 (TSPY like 2)	0.61	inactive
TSPYL2 (TSPY like 2)	0.28	inactive
TSPYL2 (TSPY like 2)	0.58	inactive
TSPYL2 (TSPY like 2)	1.19	inactive
TEAD4 (TEA domain transcription factor 4)	-0.27	inactive
TEAD4 (TEA domain transcription factor 4)	-0.07	inactive
TEAD4 (TEA domain transcription factor 4)	-0.03	inactive
TEAD4 (TEA domain transcription factor 4)	-0.23	inactive
PTCHD4 (patched domain containing 4)	-1.42	inactive
PTCHD4 (patched domain containing 4)	-0.78	inactive
PTCHD4 (patched domain containing 4)	-0.39	inactive
PTCHD4 (patched domain containing 4)	-0.81	inactive
CARHSP1 (calcium regulated heat stable protein 1)	1.15	inactive
CARHSP1 (calcium regulated heat stable protein 1)	0.6	inactive
CARHSP1 (calcium regulated heat stable protein 1)	2.46	inactive
CARHSP1 (calcium regulated heat stable protein 1)	2.13	inactive
REV1 (REV1 DNA directed polymerase)	-0.07	inactive
REV1 (REV1 DNA directed polymerase)	-0.26	inactive
REV1 (REV1 DNA directed polymerase)	0.23	inactive
REV1 (REV1 DNA directed polymerase)	0.36	inactive
TPMT (thiopurine S-methyltransferase)	-0.87	inactive
TPMT (thiopurine S-methyltransferase)	1.25	inactive
TPMT (thiopurine S-methyltransferase)	-0.94	inactive
TPMT (thiopurine S-methyltransferase)	-0.19	inactive
TSHR (thyroid stimulating hormone receptor)	0.98	inactive
TSHR (thyroid stimulating hormone receptor)	0.12	inactive
TSHR (thyroid stimulating hormone receptor)	0.34	inactive
TSHR (thyroid stimulating hormone receptor)	2.51	inactive
GLOD4 (glyoxalase domain containing 4)	-0.17	inactive
GLOD4 (glyoxalase domain containing 4)	-0.67	inactive
GLOD4 (glyoxalase domain containing 4)	-1.15	inactive
GLOD4 (glyoxalase domain containing 4)	0.24	inactive
EIF2B4 (eukaryotic translation initiation factor 2B subunit delta)	-0.39	inactive
EIF2B4 (eukaryotic translation initiation factor 2B subunit delta)	-0.76	inactive
EIF2B4 (eukaryotic translation initiation factor 2B subunit delta)	-0.42	inactive
EIF2B4 (eukaryotic translation initiation factor 2B subunit delta)	-0.79	inactive
SSBP3 (single stranded DNA binding protein 3)	-0.94	inactive
SSBP3 (single stranded DNA binding protein 3)	0	inactive
SSBP3 (single stranded DNA binding protein 3)	-0.12	inactive
SSBP3 (single stranded DNA binding protein 3)	0.01	inactive
NOB1 (NIN1 (RPN12) binding protein 1 homolog)	0.08	inactive
NOB1 (NIN1 (RPN12) binding protein 1 homolog)	-0.34	inactive
NOB1 (NIN1 (RPN12) binding protein 1 homolog)	0.19	inactive
NOB1 (NIN1 (RPN12) binding protein 1 homolog)	0.14	inactive
